The values below come from US20130324530A1 (Novartis AG, priority 2010, published 2013).

Protein sequences, listed by entry. Tags and fused reporters are not part of them.
UniProt P50750, whole entry: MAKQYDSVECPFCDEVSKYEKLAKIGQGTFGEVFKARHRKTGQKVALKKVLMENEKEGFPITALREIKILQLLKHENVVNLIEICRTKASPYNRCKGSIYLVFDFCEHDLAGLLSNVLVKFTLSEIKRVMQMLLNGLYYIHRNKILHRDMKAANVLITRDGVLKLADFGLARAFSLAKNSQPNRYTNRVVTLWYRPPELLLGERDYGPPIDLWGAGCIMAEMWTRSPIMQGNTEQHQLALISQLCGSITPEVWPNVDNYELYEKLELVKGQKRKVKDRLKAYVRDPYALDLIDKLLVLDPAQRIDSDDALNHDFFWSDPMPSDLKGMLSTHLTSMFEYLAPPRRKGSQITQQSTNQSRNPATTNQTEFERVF
UniProt O60563, whole entry partner: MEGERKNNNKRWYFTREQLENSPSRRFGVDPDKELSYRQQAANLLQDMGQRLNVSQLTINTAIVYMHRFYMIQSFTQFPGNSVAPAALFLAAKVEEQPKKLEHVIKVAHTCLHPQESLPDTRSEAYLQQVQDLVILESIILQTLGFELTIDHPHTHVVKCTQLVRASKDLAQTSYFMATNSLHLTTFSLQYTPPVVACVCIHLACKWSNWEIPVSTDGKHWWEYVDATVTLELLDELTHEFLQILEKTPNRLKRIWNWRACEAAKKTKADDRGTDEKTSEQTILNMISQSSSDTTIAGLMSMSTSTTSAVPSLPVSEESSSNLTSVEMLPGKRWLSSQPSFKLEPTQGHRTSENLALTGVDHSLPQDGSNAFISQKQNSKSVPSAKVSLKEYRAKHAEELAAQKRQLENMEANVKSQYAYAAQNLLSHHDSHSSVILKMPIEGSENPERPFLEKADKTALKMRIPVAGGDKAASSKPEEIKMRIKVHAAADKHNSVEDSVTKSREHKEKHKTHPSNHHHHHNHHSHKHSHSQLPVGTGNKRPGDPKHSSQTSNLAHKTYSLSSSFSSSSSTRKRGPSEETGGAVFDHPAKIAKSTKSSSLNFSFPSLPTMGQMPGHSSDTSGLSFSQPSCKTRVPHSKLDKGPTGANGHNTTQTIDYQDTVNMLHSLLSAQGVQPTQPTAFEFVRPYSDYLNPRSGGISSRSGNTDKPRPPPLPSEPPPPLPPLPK

This test addresses Cdk9/cyclinT1 (Homo sapiens, UniProt P50750). The test is described as follows: Cdk9/CyclinT1 IMAP assay. As to conditions: read-out: CDK9 IC50, 6 uM ATP, lower limit about 0.008, values lower than 0.008 measured under conditions with a lower dynamic range.

The match of structure and compound is tentative.

`CN(C)CCCNc1cc(-c2cncc(NCc3cccc(F)c3)c2)c(Cl)cn1`: the IC50 (as a rule, the midpoint of a concentration-inhibition curve) is 45 nM.
